These are yes or no findings as the source states them, for the method shown.
Biological target: human F-spondin FS domain (amino acids V191-K434) (human) (UniProt Q9HCB6)
Assay: SEC; FPLC on Superdex 75 calibrated with six protein standards; 200 mM NaCl, 20 mM HEPES pH 7.8; principal peak at 22.7 kDa; both purified

B1: human F-spondin FS domain (amino acids V191-K434) (domain or fragment, UniProt Q9HCB6 191-434)
chain: RSPWPGVTDKPILDCCACGTAKYRLTFYGNWSEKTHPKDYPRRANHWSAIIGGSHSKNYVLWEYGGYASEGVKQVAELGSPVKMEEEIRQQSDEVLTVIKAKAQWPAWQPLNVRAAPSAEFSVDRTRHLMSFLTMMGPSPDWNVGLSAEDLCTKECGWVQKVVQDLIPWDAGTDSGVTYESPNKPTIPQEKIRPLTSLDHPQSPFYDPEGGSITQVARVVIERIARKGEQCNIVPDNVDDIVADLAPEEKTG
modifications: N-linked glycans at N214 (not fully processed, Drosophila S2)
binding: no binding
